Literature values as cited in paper PMC3167688 (Nuclear medicine and biology, 2009).

What was measured:
neprilysin = details: albeit with lower potency than class I and II HDACs; cited from earlier work
[1] = test system: ACE (angiotensin-converting enzyme); details: albeit with lower potency than class I and II HDACs; cited from earlier work
kinases and phosphatases = details: cited from earlier work

Q: With `O=C(CCCCCCC(=O)Nc1ccccc1)NO` [SAHA, suberanilohydroxamic acid] as the molecule, how does the inhibition of neprilysin (neprilysin) read?
A: inhibit

Q: What about the “inhibition of ACE” value [1] of the same molecule?
A: inhibit

Q: What about the “inhibitory activity to a number of kinases and phosphatases” value (kinases and phosphatases) of the same molecule?
A: no inhibitory activity
